{"source": "patent US20030229030A1", "about": "“Method of treating interleukin-6-mediated inflammatory diseases” (priority 2002, published 2003)", "system": "IL-6 secretion from hCBMC", "test": "IL-6 secretion from human cord blood-derived mast cells (hCBMC), ELISA", "type": "cell-based", "settings": "hCBMC + anti-IgE; cromolyn 100 μM; n=4", "protocol": "Human cord blood-derived mast cells (HCBMC) were grown from CD34+ progenitor mononuclear umbilical cells isolated from umbilical cord blood by positive selection of AC133 (CD 133+/CD34+high) cells by magnetic cell sorting (Miltenyi Biotec, Auburn, Calif.). CD34+ cells were then cultured in Isocove's Modified Dulbecco's Medium (1MDM) containing 100 ng/ml Stem Cell Factor (from Amgen, Thousand Oaks, Calif.) plus test components in 10% FBS at 37° C. in 5% CO2 balanced air. By 10 weeks, 95% of the cells in culture could be identified as mast cells by immuno-staining for tryptase. hCBMC were washed three times in PBS and resuspended in culture medium (1×10^5 cells/200 ul sample). Test substances, e.g., IL-1 were added and cells were incubated at 37° C. in 5% CO2 for six hours for dose-response experiments or for the indicated times in time-course experiments. IL-6 and tryptase were measured in cell-free supernatant fluids by ELISA (R&D Systems, Minneapolis, Minn.) and fluoroenzymeimmunoassay (Pharmacia, Uppsala, Sweden), respectively.\nDose-response of IL-6 and tryptase secretion from hCBMC and HMC-1 cells were tested after stimulation for six hours with indicated concentrations of IL-1 or other stimuli. Time-course of IL.6 production induced by 50 ng/ml of IL-1 a from CBMC or by 10 ng/ml IL-1 from HMC-1 cells could be tested. […]", "note": "At least one compound was matched to its structure with a doubt left.", "data": [{"compound": "O=C(O)c1cc(=O)c2c(OCC(O)COc3cccc4oc(C(=O)O)cc(=O)c34)cccc2o1", "note": "[Cromolyn, Disodium cromoglycate, reference compound]", "values": [{"measurement": "secretion of IL-6 (FIG. 3)", "value": "not statistically significant"}]}]}
